# Measurements published in publication PMC5996148.
# By UniProt entry, the sequences of proteins in these tests, tags left out.
# UniProt O75821, whole entry: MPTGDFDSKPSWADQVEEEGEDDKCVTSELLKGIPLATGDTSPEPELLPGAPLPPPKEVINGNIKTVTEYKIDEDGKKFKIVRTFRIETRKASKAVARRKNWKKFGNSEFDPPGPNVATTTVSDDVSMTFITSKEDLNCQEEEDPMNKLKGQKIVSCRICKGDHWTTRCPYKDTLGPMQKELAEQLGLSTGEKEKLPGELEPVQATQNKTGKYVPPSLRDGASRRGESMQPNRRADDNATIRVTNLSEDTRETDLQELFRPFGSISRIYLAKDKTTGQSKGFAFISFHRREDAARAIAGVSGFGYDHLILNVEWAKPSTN
# UniProt P60228, whole entry: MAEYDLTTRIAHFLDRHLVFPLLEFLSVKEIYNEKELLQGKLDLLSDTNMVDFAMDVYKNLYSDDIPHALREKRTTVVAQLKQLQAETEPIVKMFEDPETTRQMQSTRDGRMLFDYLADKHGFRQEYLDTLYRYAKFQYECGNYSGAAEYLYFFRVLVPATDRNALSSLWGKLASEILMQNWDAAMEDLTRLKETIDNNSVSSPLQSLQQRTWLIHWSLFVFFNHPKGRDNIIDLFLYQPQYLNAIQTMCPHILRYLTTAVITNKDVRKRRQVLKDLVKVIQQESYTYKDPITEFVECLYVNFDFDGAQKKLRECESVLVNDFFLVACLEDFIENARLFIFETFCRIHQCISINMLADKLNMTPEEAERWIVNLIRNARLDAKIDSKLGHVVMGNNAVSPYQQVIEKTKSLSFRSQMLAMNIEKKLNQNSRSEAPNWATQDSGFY
# Where “and” joins values, the source holds several entries; their conditions need not be identical. Equal entries are not always repeated. The list shows a part of the results. For some of these results: The exact form of the protein is not confirmed.
# Experiments:
# Assay in all cases: protein microarray (ProtoArray v5.0), streptavidin-Alexa Fluor 647
# Conditions in all cases: 3'-biotin; 20 mM Tris (pH 7.5), 5 mM MgCl2, 100 mM KCl, 0.1% Tween-20, A/T-rich and random oligonucleotide blockers; temperature not stated; high values mean tight binding
# ECE2 (human) = test system: ECE2 (human)
# ECM1 (human) = test system: ECM1 (human)
# EFCBP1 (human) = test system: EFCBP1 (human)
# EFS (human) = test system: EFS (human)
# EIF2B2 (human) = test system: EIF2B2 (human)
# EIF3S4 = EIF3S4 (UniProt O75821)
# EIF3S6 = EIF3S6 (UniProt P60228)
# ELA3A (human) = test system: ELA3A (human)
# EMILIN1 (human) = test system: EMILIN1 (human)
# EMP3 (human) = test system: EMP3 (human)
sequence,measurement,setting,value
GGGGACAGGGGTATGGGGAGGGG [G4-3 biotinylated (CtG)],binding signal,ECE2 (human),-0.334 z-score
same,binding signal,ECM1 (human),-0.319 z-score
same,binding signal,EFCBP1 (human),-0.305 z-score
same,binding signal,EFS (human),-0.33 z-score
same,binding signal,EIF2B2 (human),-0.343 z-score
same,binding signal,EIF3S4,3.15 z-score
same,binding signal,EIF3S6,-0.34 z-score
same,binding signal,ELA3A (human),-0.318 z-score and -0.316 z-score
same,binding signal,EMILIN1 (human),-0.33 z-score
same,binding signal,EMP3 (human),-0.316 z-score

# Given bar-delimited: part of the list above
sequence | measurement | setting | value
GGGGACAGGGGTATGGGGAGGGG [G4-3 biotinylated (CtG)] | binding signal | EMILIN1 (human) | -0.33 z-score
same | binding signal | EMP3 (human) | -0.316 z-score
